Record: PubChem BioAssay AID1671195 (Yale University, 2021)
Aim: 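Knockdowns that increase or decrease uptake of fluorescent LDL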 (primary screen). System: human Huh7 hepatoma cells. Knock-down reagent: siRNA pool against human genes, 18 nM. Timing: about 2 to 2.5 days of knockdown, then 8 h LDL uptake. Conditions: DiI-labelled LDL at 30 µg/ml for 8 h, in lipoprotein-deficient serum medium. Measured: 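Fluorescent LDL signal imaged in cells, scaled to the plate median, robust z-score for each replicate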. Direction: robust z-score: higher = more LDL uptake after knockdown. Hit rule: 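Active when two or more replicates show a robust z-score above 2 or below -2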.
The whole screen tested about 22,000 reagents; shown is an unselected part. About 1,510 of them (6.9%) were called active. 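Active includes knockdowns raising or lowering LDL uptake; positive z-scores mean more uptake, negative mean less.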

{"gene":"KCNG2","robust z-score, replicate 1":-1.8,"robust z-score, replicate 2":-1.55,"robust z-score, replicate 3":-1.62,"outcome":"inactive"}
{"gene":"ACTL6B","robust z-score, replicate 1":-0.216,"robust z-score, replicate 2":-0.106,"robust z-score, replicate 3":0.631,"outcome":"inactive"}
{"gene":"ZNF142","robust z-score, replicate 1":-0.56,"robust z-score, replicate 2":-0.467,"robust z-score, replicate 3":-0.649,"outcome":"inactive"}
{"gene":"MYBL1","robust z-score, replicate 1":1.83,"robust z-score, replicate 2":1.02,"robust z-score, replicate 3":0.989,"outcome":"inactive"}
{"gene":"ZNF557","robust z-score, replicate 1":0.263,"robust z-score, replicate 2":0.15,"robust z-score, replicate 3":-0.0702,"outcome":"inactive"}

Quoted from the entries so far (2 entries):
{"gene":"KCNG2","robust z-score, replicate 1":-1.8,"robust z-score, replicate 2":-1.55,"robust z-score, replicate 3":-1.62,"outcome":"inactive"}
{"gene":"ACTL6B","robust z-score, replicate 1":-0.216,"robust z-score, replicate 2":-0.106,"robust z-score, replicate 3":0.631,"outcome":"inactive"}

The results go on.
{"gene":"GNB4","robust z-score, replicate 1":1.11,"robust z-score, replicate 2":0.907,"robust z-score, replicate 3":0.822,"outcome":"inactive"}
{"gene":"OPALIN","robust z-score, replicate 1":1.57,"robust z-score, replicate 2":2.45,"robust z-score, replicate 3":2.03,"outcome":"active"}
{"gene":"RBM15B","robust z-score, replicate 1":1.55,"robust z-score, replicate 2":1.2,"robust z-score, replicate 3":1.6,"outcome":"inactive"}
{"gene":"F8","robust z-score, replicate 1":-2.42,"robust z-score, replicate 2":-2.04,"robust z-score, replicate 3":-2.05,"outcome":"active"}
{"gene":"KLF5","robust z-score, replicate 1":-1.99,"robust z-score, replicate 2":-1.84,"robust z-score, replicate 3":-1.66,"outcome":"inactive"}
{"gene":"JPT2","robust z-score, replicate 1":2.04,"robust z-score, replicate 2":2.31,"robust z-score, replicate 3":2.23,"outcome":"active"}
{"gene":"TMEFF1","robust z-score, replicate 1":1.78,"robust z-score, replicate 2":-0.743,"robust z-score, replicate 3":0.113,"outcome":"inactive"}
{"gene":"LRGUK","robust z-score, replicate 1":1.32,"robust z-score, replicate 2":0.391,"robust z-score, replicate 3":1.63,"outcome":"inactive"}
{"gene":"ADGRB1","robust z-score, replicate 1":1.07,"robust z-score, replicate 2":0.164,"robust z-score, replicate 3":-0.628,"outcome":"inactive"}
{"gene":"ACTA2","robust z-score, replicate 1":-1.51,"robust z-score, replicate 2":-1.13,"robust z-score, replicate 3":-1.26,"outcome":"inactive"}
{"gene":"TAX1BP3","robust z-score, replicate 1":0.268,"robust z-score, replicate 2":1.58,"robust z-score, replicate 3":1.68,"outcome":"inactive"}
